Holding throughout (design): species or system human
Data set [1] has as its system PBMC of healthy donors. The data set is described as follows: HLA class I ligandome analysis (LC-MS/MS) of healthy donor PBMC. As to conditions: 30 PBMC samples; for Number of positive healthy donors (PBMC): HLA class I ligandome, first figure of the cell; for rep. frequency % in healthy donors (PBMC): source protein level.
In data set [2] the test system is BMNC of healthy donors. The experiment in a line: HLA class I ligandome analysis (LC-MS/MS) of healthy donor BMNC. To be noted: 5 BMNC samples; for Number of positive healthy donors (BMNC): HLA class I ligandome, second figure of the cell; for rep. frequency % in healthy donors (BMNC): source protein level.
The test system of data set [3] is primary AML samples. The experiment in a line: HLA class I ligandome analysis (W6/32 immunoaffinity purification, LC-MS/MS) of primary AML samples. As to conditions: 15 AML samples; for Number of positive AMLs: HLA class I ligandome; for rep. frequency % in AMLs: source protein level, HLA class I.

B1: PASD1 pas domain containing 1: established AML-associated antigen, source protein of the HLA ligands listed under it (protein, UniProt Q8IV76 1-773, looked up)
Circadian clock protein PASD1: MKMRGEKRRDKVNPKSSQRKLNWIPSFPTYDYFNQVTLQLLDGFMITLSTDGVIICVAENISSLLGHLPAEIVGKKLLSLLPDEEKDEVYQKIILKFPLLNSETHIEFCCHLKRGNVEHGDSSAYENVKFIVNVRDICNEFPVVFSGLFSSHLCADFAACVPQEDRLYLVGNVCILRTQLLQQLYTSKAVSDEAVLTQDSDEEPFVGELSSSQGQRGHTSMKAVYVEPAAAAAAAAISDDQIDIAEVEQYGPQENVHMFVDSDSTYCSSTVFLDTMPESPALSLQDFRGEPEVNPLYRADPVDLEFSVDQVDSVDQEGPMDQQDPENPVAPLDQAGLMDPVDPEDSVDLGAAGASAQPLQPSSPVAYDIISQELELMKKLKEQLEERTWLLHDAIQNQQNALELMMDHLQKQPNTLRHVVIPDLQSSEAVPKKQQKQHAGQVKRPLPHPKDVKCFCGLSLSNSLKNTGELQEPCVAFNQQQLVQQEQHLKEQQRQLREQLQQLREQRKVQKQKKMQEKKKLQEQKMQEKKKLQEQRRQKKKKLQERKKWQGQMLQKEPEEEQQKQQLQEQPLKHNVIVGNERVQICLQNPRDVSVPLCNHPVRFLQAQPIVPVQRAAEQQPSGFYQDENCGQQEDESQSFYPEAYQGPPVNQLPLIDTSNSEAISSSSIPQFPITSDSTISTLETPQDYIRLWQELSDSLGPVVQVNTWSCDEQGTLHGQPTYHQVQVSEVGVEGPPDPQAFQGPAAYQPDQMRSAEQTRLMPAEQRDSNKPC
Take B1: in data set [1], the “Number of positive healthy donors (PBMC)” value is recorded as 0 and the “rep. frequency % in healthy donors (PBMC)” value is reported as 0.0%. In addition, in data set [2], the “Number of positive healthy donors (BMNC)” value was determined as 0 and the “rep. frequency % in healthy donors (BMNC)” value was 0.0%. Further, in data set [3], the “Number of positive AMLs” value came to 2 and the “rep. frequency % in AMLs” value is on record as 13.3%.

B2: CCNA1 cyclin A1: established AML-associated antigen, source protein of the HLA ligands listed under it (protein, UniProt P78396 1-465, looked up)
Cyclin-A1: METGFPAIMYPGSFIGGWGEEYLSWEGPGLPDFVFQQQPVESEAMHCSNPKSGVVLATVARGPDACQILTRAPLGQDPPQRTVLGLLTANGQYRRTCGQGITRIRCYSGSENAFPPAGKKALPDCGVQEPPKQGFDIYMDELEQGDRDSCSVREGMAFEDVYEVDTGTLKSDLHFLLDFNTVSPMLVDSSLLSQSEDISSLGTDVINVTEYAEEIYQYLREAEIRHRPKAHYMKKQPDITEGMRTILVDWLVEVGEEYKLRAETLYLAVNFLDRFLSCMSVLRGKLQLVGTAAMLLASKYEEIYPPEVDEFVYITDDTYTKRQLLKMEHLLLKVLAFDLTVPTTNQFLLQYLRRQGVCVRTENLAKYVAELSLLEADPFLKYLPSLIAAAAFCLANYTVNKHFWPETLAAFTGYSLSEIVPCLSELHKAYLDIPHRPQQAIREKYKASKYLCVSLMEPPAVLLLQ
In the case of B2, in data set [1], the “Number of positive healthy donors (PBMC)” value came to 0 and the “rep. frequency % in healthy donors (PBMC)” value is given as 0.0%. Further, in data set [2], the “Number of positive healthy donors (BMNC)” value was found to be 0 and the “rep. frequency % in healthy donors (BMNC)” value stood at 0.0%. In data set [3], the “Number of positive AMLs” value is 2 and the “rep. frequency % in AMLs” value is recorded as 13.3%.

The record behind these values is patent publication US10525115B2 (Immatics Biotechnologies GmbH, priority 2014, dated 2020).
